This test deals with N-terminal 3xHA-tagged wild-type Irc20 (S. cerevisiae) (UniProt Q06554). Briefly: co-IP; yeast crude extract in RNP buffer (0.1 M HEPES pH 7.4, 100 mM NaCl, 0.1% NP-40) on anti-HA agarose beads, 4°C, 90 minutes; HA-Irc20 derivatives precipitated, Cdc48–3xMyc detected by anti-MYC western blot. On the technique in general: In western blotting, separated proteins are transferred to a membrane and probed.

Protein sequences, listed by entry. Tags and fused reporters are not part of them. Lines headed by an entry give the natural chain unless they say otherwise; changes in a name come on top.
UniProt Q06554: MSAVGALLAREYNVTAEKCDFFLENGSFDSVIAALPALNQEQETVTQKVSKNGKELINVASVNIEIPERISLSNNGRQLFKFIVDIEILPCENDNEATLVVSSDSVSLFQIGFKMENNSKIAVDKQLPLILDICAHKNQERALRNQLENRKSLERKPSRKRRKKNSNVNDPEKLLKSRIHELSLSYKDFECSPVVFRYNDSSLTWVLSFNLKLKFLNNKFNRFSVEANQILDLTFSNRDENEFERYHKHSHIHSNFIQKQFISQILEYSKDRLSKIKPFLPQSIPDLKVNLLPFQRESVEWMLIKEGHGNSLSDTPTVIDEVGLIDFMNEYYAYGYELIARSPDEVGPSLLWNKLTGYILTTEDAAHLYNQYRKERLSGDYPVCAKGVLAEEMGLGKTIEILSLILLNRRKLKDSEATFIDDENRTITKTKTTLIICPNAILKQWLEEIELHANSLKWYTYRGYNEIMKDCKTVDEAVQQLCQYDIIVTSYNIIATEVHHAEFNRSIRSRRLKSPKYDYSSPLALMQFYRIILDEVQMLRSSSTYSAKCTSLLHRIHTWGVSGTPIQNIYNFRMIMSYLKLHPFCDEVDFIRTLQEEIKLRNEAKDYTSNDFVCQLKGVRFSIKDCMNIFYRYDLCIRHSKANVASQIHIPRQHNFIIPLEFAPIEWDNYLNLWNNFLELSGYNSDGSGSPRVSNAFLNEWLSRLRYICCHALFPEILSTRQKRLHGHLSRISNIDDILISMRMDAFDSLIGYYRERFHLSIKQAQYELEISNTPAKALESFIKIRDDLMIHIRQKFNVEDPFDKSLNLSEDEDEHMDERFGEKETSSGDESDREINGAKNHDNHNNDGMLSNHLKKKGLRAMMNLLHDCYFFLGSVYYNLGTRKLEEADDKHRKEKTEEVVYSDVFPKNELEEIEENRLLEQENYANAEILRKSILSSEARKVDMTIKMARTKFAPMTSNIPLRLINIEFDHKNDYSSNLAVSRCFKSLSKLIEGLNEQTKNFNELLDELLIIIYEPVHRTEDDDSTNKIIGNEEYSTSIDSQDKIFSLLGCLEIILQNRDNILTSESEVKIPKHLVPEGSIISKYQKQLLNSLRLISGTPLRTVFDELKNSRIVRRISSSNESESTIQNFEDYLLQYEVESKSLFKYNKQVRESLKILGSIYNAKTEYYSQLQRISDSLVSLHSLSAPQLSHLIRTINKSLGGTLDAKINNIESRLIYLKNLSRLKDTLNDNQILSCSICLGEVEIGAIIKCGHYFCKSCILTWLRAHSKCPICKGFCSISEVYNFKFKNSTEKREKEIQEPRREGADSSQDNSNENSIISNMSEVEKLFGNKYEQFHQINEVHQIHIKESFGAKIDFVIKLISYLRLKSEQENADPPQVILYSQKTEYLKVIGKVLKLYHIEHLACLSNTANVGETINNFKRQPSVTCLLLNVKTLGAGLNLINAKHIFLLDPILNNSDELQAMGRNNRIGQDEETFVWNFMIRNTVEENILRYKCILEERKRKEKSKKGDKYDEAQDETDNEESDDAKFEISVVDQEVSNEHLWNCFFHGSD
UniProt P25694: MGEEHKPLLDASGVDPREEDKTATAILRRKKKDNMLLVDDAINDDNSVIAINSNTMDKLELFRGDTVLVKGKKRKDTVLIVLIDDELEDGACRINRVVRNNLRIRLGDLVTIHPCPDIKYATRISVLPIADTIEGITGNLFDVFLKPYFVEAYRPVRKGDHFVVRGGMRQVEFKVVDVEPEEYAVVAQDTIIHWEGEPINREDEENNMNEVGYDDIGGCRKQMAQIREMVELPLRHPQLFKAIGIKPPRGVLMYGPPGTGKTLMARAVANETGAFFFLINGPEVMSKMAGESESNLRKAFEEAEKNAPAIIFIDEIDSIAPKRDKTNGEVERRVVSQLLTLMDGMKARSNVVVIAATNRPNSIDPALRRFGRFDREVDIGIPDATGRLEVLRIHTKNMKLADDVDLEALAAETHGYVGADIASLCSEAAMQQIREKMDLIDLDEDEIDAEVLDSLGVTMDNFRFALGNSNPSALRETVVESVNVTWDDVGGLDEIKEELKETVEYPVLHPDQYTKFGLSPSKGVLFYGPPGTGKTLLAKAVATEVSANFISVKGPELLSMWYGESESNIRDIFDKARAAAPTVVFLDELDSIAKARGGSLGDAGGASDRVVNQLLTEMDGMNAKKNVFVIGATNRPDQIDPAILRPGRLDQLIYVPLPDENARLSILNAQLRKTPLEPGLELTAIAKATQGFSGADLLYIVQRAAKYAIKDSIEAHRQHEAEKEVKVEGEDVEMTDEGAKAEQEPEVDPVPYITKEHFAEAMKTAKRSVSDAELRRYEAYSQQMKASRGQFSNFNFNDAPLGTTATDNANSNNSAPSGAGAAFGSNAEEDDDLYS

Results are given in words; binding and its absence hold for the method and conditions named. In cells and extracts the contact can be indirect. Some entries that bind do so weakly or less than the wild type.

For the substance “cdc48-R369K-3xMYC (from UniProt P25694 1-835)”, the binding entry is reported as “binds”.
